Values from PubChem BioAssay AID1259405 (NCATS, 2018)
Screen: 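Mouse-designed siRNAs used to find CHO productivity engineering targets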 (primary screen). Cell system: Chinese hamster CHO-K1 ovary cells with stable secreted eGFP expression. Reagents: single siRNA against mouse genes, 0.8 pmol siRNA per well (2 µl of 400 nM stock). Duration: 3 days. Read-out: 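Percent of the per-plate non-targeting control median for intracellular GFP per well by laser scanning cytometry and for cell viability by ATP luminescence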. Scale: GFP, % of control: higher = more GFP per well, higher productivity; viability (ATP), % of control: higher = more viable cells (more ATP). Hit rule: 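a knock-down is called active if GFP reaches 120% or more of non-targeting control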.
This is one part, drawn at random, of about 50,000 deposited reagents. About 4,000 of them (8%) count as active. 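Mouse siRNA library applied to hamster cells; one well for each siRNA.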 Reagents against one gene are numbered here.

Target gene | siRNA no. | GFP, % of control | viability (ATP), % of control | outcome
Apba1 | 1 | 52.2 | 97.9 | inactive
Apba1 | 2 | 99.7 | 82 | inactive
Eif5a2 | 1 | 59.9 | 86.7 | inactive
Eif5a2 | 2 | 81.8 | 77.9 | inactive
Eif5a2 | 3 | 83.7 | 112 | inactive
Nqo1 | 1 | 34.9 | 64 | inactive
Nqo1 | 2 | 51.2 | 65.1 | inactive
Or5w20 | 1 | 157 | 52 | active
Or5w20 | 2 | 77.8 | 90.8 | inactive
Or5w20 | 3 | 46.3 | 53 | inactive
4931414P19Rik | 1 | 120 | 50.7 | active
4931414P19Rik | 2 | 58.8 | 60.5 | inactive
4931414P19Rik | 3 | 62.9 | 65 | inactive
2310022B05Rik | 1 | 73.5 | 69.2 | inactive
2310022B05Rik | 2 | 99.3 | 118 | inactive
2310022B05Rik | 3 | 34.9 | 57.5 | inactive
Zfp345 | 1 | 64.4 | 84.9 | inactive
Zfp345 | 2 | 70 | 89.9 | inactive
Zfp345 | 3 | 62.7 | 66.5 | inactive
Defa4 | 1 | 73.1 | 85.1 | inactive
Defa4 | 2 | 57.4 | 61.5 | inactive
Defa4 | 3 | 127 | 88.1 | active
2410004B18Rik | 1 | 80.6 | 107 | inactive
2410004B18Rik | 2 | 110 | 81.7 | inactive
2410004B18Rik | 3 | 90 | 96.8 | inactive
Exoc3l4 | 1 | 137 | 70.8 | active
Exoc3l4 | 2 | 123 | 90.1 | active
Exoc3l4 | 3 | 161 | 119 | active
Or8b3b | 1 | 57.9 | 57.2 | inactive
Or8b3b | 2 | 44.5 | 28.4 | inactive
Or8b3b | 3 | 88.9 | 67.8 | inactive
Eef1akmt2 | 1 | 122 | 75.5 | active
Eef1akmt2 | 2 | 96.1 | 89.6 | inactive
Eef1akmt2 | 3 | 37.1 | 39.8 | inactive
